Our source for the T/C and survivor count values is PubChem BioAssay AID330 (DTP/NCI, 2004).

The list does not hold the whole screen: it is rich in T/C values a quarter to a half above the control, in often repeated tests (any T/C) and in doses without a T/C. Further doses and runs are listed elsewhere. T/C is the treated group as % of the vehicle group. Some entries give survivors of the animals treated and no T/C: the source files T/C as zero there, which appears to mark a toxic dose or a test without result, not a measured value. Some survivor counts are full or nearly so, which does not show that the dose was tolerated: survival well below the control is almost never listed, so the zero probably covers shortened survival too. Counts of survivors are from the toxicity check (mostly the fifth day) where no day follows; animals may have died later. Schedules are NCI's codes, read here as Q, the interval in days (D) or hours (H), X, the number of doses. For survival time, the PubChem record calls one and a half times the control and up active, and a quarter to a half above the control has no call in these data; cut-offs in other NCI protocols can differ. Counts like (3×) count equal records among those shown. Some T/C values carry the count of animals alive at the toxicity check (mostly the fifth day); without a count, all were alive then.

The subject of the test is P388 leukemia ip, CD2F1 mice, survival T/C. The test can be described thus: NCI In Vivo Anticancer Drug Screen. Data for tumor model P388 Leukemia (intraperitoneal) in CD2F1 (CDF1) mice. To be noted: T/C endpoint: median survival time, higher T/C = longer survival.
Setting [1] is: dose: 50.0 mg/kg/injection, schedule: Q01DX009 (ip), vehicle: saline with Tween-80.
Setting [2] is: dose: 100.0 mg/kg/injection, schedule: Q01DX009 (ip), vehicle: saline with Tween-80.
Setting [3] is: dose: 200.0 mg/kg/injection, schedule: Q01DX009 (ip), vehicle: saline with Tween-80.
Where [4] appears, read: dose: 200.0 mg/kg/injection, schedule: Q01DX005 (ip), vehicle: Klucel (hydroxypropylcellulose) (HPC).
Setting [5] is: dose: 100.0 mg/kg/injection, schedule: Q01DX005 (ip), vehicle: saline with Tween-80.
The mark [6] stands for this setting: dose: 200.0 mg/kg/injection, schedule: Q01DX005 (ip), vehicle: saline with Tween-80.

As for `CC(C)CC(NC(=O)OCC[P+](c1ccccc1)(c1ccccc1)c1ccccc1)C(=O)O` (centres undefined), the T/C was 134 % of control (dose: 8.25 mg/kg/injection, schedule: Q01DX009 (ip), vehicle: saline with Tween-80) and 130 % of control (2×) (dose: 12.5 mg/kg/injection, schedule: Q01DX009 (ip), vehicle: saline with Tween-80). In addition, the survivor count by setting is: (dose: 18.75 mg/kg/injection, schedule: Q01DX009 (ip), vehicle: saline with Tween-80) 5 of 6; (dose: 25.0 mg/kg/injection, schedule: Q01DX009 (ip), vehicle: saline with Tween-80) 5 of 6; under setting [1], 1 of 6; under setting [2], 0 of 6; under setting [3], 0 of 6.

With `CCOC(=O)C1=C(C(=O)c2ccc(OC)cc2)C(c2c(Cl)cccc2Cl)C(C(=O)c2ccc(OC)cc2)=C(C(=O)OCC)N1`, the survivor count (dose: 120.0 mg/kg/injection, schedule: Q01DX005 (ip), vehicle: saline with Tween-80) was 5 of 6.

With `c1ccc2n[nH]nc2c1`, the survivor count reads like this: (dose: 400.0 mg/kg/injection, schedule: Q01DX001 (ip), vehicle: saline with Tween-80) 0 of 6; (dose: 400.0 mg/kg/injection, schedule: Q01DX009 (ip), vehicle: saline with Tween-80) 0 of 6; (dose: 400.0 mg/kg/injection, schedule: Q04DX003 (ip), vehicle: saline with Tween-80) 6 of 6.

In the case of `C=CC(=NC(C)(C)C)Nc1ccc(OC)cc1`, the survivor count under setting [3] was 0 of 6.

In the case of `Cn1c(=O)oc2cc([N+](=O)[O-])c(Cl)cc21`, under setting [4], the survivor count was 1 of 6.

Turning to `CC/C(C)=N/NC(=S)NC`, the survivor count is, setting by setting: (dose: 50.0 mg/kg/injection, schedule: Q01DX009 (ip), vehicle: saline) 4 of 6; (dose: 100.0 mg/kg/injection, schedule: Q01DX009 (ip), vehicle: saline) 0 of 6; (dose: 200.0 mg/kg/injection, schedule: Q01DX009 (ip), vehicle: saline) 0 of 6.

Regarding `O=C(O)c1[nH]c(=O)[nH]c(=O)c1F`, the T/C by setting is: (dose: 2.0 mg/kg/injection, schedule: Q01DX009 (ip), vehicle: saline) 127 % of control; (dose: 4.0 mg/kg/injection, schedule: Q01DX009 (ip), vehicle: saline) 145 % of control; (dose: 8.0 mg/kg/injection, schedule: Q01DX009 (ip), vehicle: saline) 131 % of control; (dose: 10.0 mg/kg/injection, schedule: Q01DX010 (ip), vehicle: saline) 135 % of control [5 of 6 alive]. Further, where the note is “dose: 20.0 mg/kg/injection, schedule: Q01DX010 (ip), vehicle: saline”, the survivor count is recorded as 5 of 6.

`[N-]=[N+]=CC(=O)CCC(N)C(=O)O` (centres undefined): the T/C by setting is: (dose: 0.03 mg/kg/injection, schedule: Q01DX009 (ip), vehicle: saline) 138 % of control; (dose: 0.08 mg/kg/injection, schedule: Q01DX009 (ip), vehicle: saline) 133 % of control [5 of 6 alive]; (dose: 0.3 mg/kg/injection, schedule: Q01DX005 (ip), vehicle: saline) 136 % of control; (dose: 0.6 mg/kg/injection, schedule: Q01DX005 (iv), vehicle: saline) 136 % of control; (dose: 1.2 mg/kg/injection, schedule: Q01DX005 (ip), vehicle: saline) 126 % of control; (dose: 1.2 mg/kg/injection, schedule: Q01DX005 (iv), vehicle: saline) 148 % of control. In addition, the T/C (dose: 31.2 micrograms/kg/injection, schedule: Q01DX009 (ip), vehicle: saline) was 139 % of control. Moreover, the survivor count (dose: 0.6 mg/kg/injection, schedule: Q01DX009 (ip), vehicle: saline) is on record as 6 of 6.

With `CCc1nc(N)nc(N)c1-c1ccc(OC)c(N)c1`, the T/C is, setting by setting: under setting [5], 126 % of control; under setting [6], 144 % of control; (dose: 400.0 mg/kg/injection, schedule: Q01DX005 (ip), vehicle: saline with Tween-80) 141 % of control.

As for `O=C1C=C(NCCC2CCCN3CCCCC23)C(=O)c2ccccc21` (centres undefined), the survivor count is 0 of 6 (dose: 100.0 mg/kg/injection, schedule: Q01DX001 (ip), vehicle: Klucel (hydroxypropylcellulose) (HPC)); 0 of 6 (dose: 200.0 mg/kg/injection, schedule: Q01DX001 (ip), vehicle: Klucel (hydroxypropylcellulose) (HPC)); 0 of 6 (dose: 400.0 mg/kg/injection, schedule: Q01DX001 (ip), vehicle: Klucel (hydroxypropylcellulose) (HPC)).

Turning to `O=c1[nH]c2ccccc2nc1/C=C(\O)c1ccc([N+](=O)[O-])cc1`, the survivor count was 6 of 6 (dose: 60.0 mg/kg/injection, schedule: Q01DX005 (ip), vehicle: Klucel + Tween-80); 5 of 6 (dose: 120.0 mg/kg/injection, schedule: Q01DX005 (ip), vehicle: Klucel + Tween-80); 4 of 6 (dose: 240.0 mg/kg/injection, schedule: Q01DX005 (ip), vehicle: Klucel + Tween-80).

For `ClC(Cl)(Cl)c1nc2nccnc2[nH]1`, the survivor count under setting [1] was 5 of 6 and the survivor count under setting [2] is recorded as 5 of 6.

Regarding `COc1ccc(/C=C2/C(=O)N(c3ccccc3)N=C2C)c(OC)c1`, for the setting “dose: 120.0 mg/kg/injection, schedule: Q01DX005 (ip), vehicle: Klucel (hydroxypropylcellulose) (HPC)”, the survivor count was 6 of 6.

As to `CCC1(CC)C(=O)NC(=O)[N]([Sn]([CH2]C)([CH2]C)[N]2C(=O)NC(=O)C(CC)(CC)C2=O)C1=O`, the T/C is, setting by setting: (dose: 6.25 mg/kg/injection, schedule: Q01DX005 (ip), vehicle: Klucel (hydroxypropylcellulose) (HPC)) 128 % of control; (dose: 12.5 mg/kg/injection, schedule: Q01DX005 (ip), vehicle: Klucel (hydroxypropylcellulose) (HPC)) 138 % of control [5 of 6 alive]. Further, the survivor count by setting is: (dose: 50.0 mg/kg/injection, schedule: Q01DX005 (ip), vehicle: Klucel (hydroxypropylcellulose) (HPC)) 2 of 6; (dose: 100.0 mg/kg/injection, schedule: Q01DX005 (ip), vehicle: Klucel (hydroxypropylcellulose) (HPC)) 0 of 6; under setting [4], 0 of 6.

For `CCCCC(CCCCCC(CCCC)C1NC(C)Cc2cc(OC)c(OC)cc21)C1NC(C)Cc2cc(OC)c(OC)cc21` (centres undefined), the survivor count is reported as 3 of 5 (dose: 50.0 mg/kg/injection, schedule: Q01DX005 (ip), vehicle: suspension in saline); 2 of 5 (dose: 100.0 mg/kg/injection, schedule: Q01DX005 (ip), vehicle: suspension in saline); 0 of 5 (dose: 200.0 mg/kg/injection, schedule: Q01DX005 (ip), vehicle: suspension in saline).

`CN(C)CCCNc1cc(O)c2c(c1O)C(=O)c1ccccc1C2=O`: the survivor count is, setting by setting: (dose: 200.0 mg/kg/injection, schedule: Q01DX009 (ip), vehicle: other) 6 of 6; (dose: 300.0 mg/kg/injection, schedule: Q01DX009 (ip), vehicle: other) 3 of 6; (dose: 400.0 mg/kg/injection, schedule: Q01DX009 (ip), vehicle: water) 4 of 6. Also, the T/C (dose: 200.0 mg/kg/injection, schedule: Q01DX009 (ip), vehicle: water) is 130 % of control.

In the case of `CCCCOc1cc2c(cc1C(C)c1ccccc1)OCO2` (centres undefined), the survivor count runs as follows: under setting [5], 6 of 6; under setting [6], 6 of 6.

`O=C1C=CC(=O)N1n1cccc1`: the survivor count is 0 of 6 (dose: 50.0 mg/kg/injection, schedule: Q01DX009 (ip), vehicle: Klucel (hydroxypropylcellulose) (HPC)); 0 of 6 (dose: 100.0 mg/kg/injection, schedule: Q01DX009 (ip), vehicle: Klucel (hydroxypropylcellulose) (HPC)); 0 of 6 (dose: 200.0 mg/kg/injection, schedule: Q01DX009 (ip), vehicle: Klucel (hydroxypropylcellulose) (HPC)).

Turning to `O=[N+]([O-])c1ccc([Se]CCBr)c([N+](=O)[O-])c1`, the survivor count (dose: 400.0 mg/kg/injection, schedule: Q04DX003 (ip), vehicle: Klucel (hydroxypropylcellulose) (HPC)) is 0 of 6.
